From US20090149551A1 (priority 2007, published 2009)

Tested on: P. falciparum clone Dd2
Test: microbe, parasite or virus in culture
Assay type: cell-based
Details: Plasmodium falciparum, DD2, read-out: IC50 against P. falciparum clone Dd2
Protocol: Cultures of Plasmodium falciparum.
In vitro antiplasmodial activity: All solutions of chloroquine diphosphate, artemisinin (Sigma Aldrich), and OHCT were prepared in media RPMI 1640, ethanol and 0.1% DMSO, respectively. […] Parasite growth was estimated by microscopic observation of Giemsa-stained blood smears. All results presented are the means of at least three independent experiments.
OHCT action on specific parasite life cycle stages: P. falciparum cultures were synchronized with 5% sorbitol and the Percoll-Sorbitol methods. Dilutions of OHCT, chloroquine, and artemisinin were prepared. To determine the in vitro efficacies of the three antimalarial drugs in culture, serial dilutions were prepared: for artemisinin, chloroquine and OHCT at 2, 4, 8, 16, 32 and 40 μM, respectively. After synchronization, the parasites were plated at the ring stage in 96-well plates. Each plate corresponded to one of the successive 6-h periods of the P. falciparum life cycle.

## CCN(CC)CCCC(C)Nc1ccnc2cc(Cl)ccc12 (stereo not shown) [chloroquine, reference compound]
  IC50: 560 nM
